Source: patent US5168102A, “Endocrine manipulation to improve body composition of poultry” (priority 1990, dated 1992)
The name of at least one read-out is uncertain.

Test: Example 3: plasma hormone levels (RIA)
Format: in vivo, broiler cockerels

For N[C@@H](Cc1cc(I)c(Oc2ccc(O)c(I)c2)c(I)c1)C(=O)O [T3, 3,3',5-triiodo-L-thyronine], the “plasma T3” value (0.25 ppm of feed) was 2.7 ± 0.2 ng/mL, the “plasma T3” value (1.0 ppm of feed) was 4.5 ± 0.8 ng/mL and the “plasma T3” value (4.0 ppm of feed) was 16.3 ± 2.6 ng/mL.
